Measured values: PubChem BioAssay AID1508600 (Functional Genomics Laboratory (NCATS/FGL), 2020)
Hit rate of the full screen: of about 53,000 sequences, about 3,700 (7%) were called active.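 Rule for the calls: active = gene knockdowns whose robust z-score for IL-1 alpha signal is at least 2 or at most -2, so actives lie on both sides; inactive = the rest.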 Some of the results follow.

Experiment: Components of the Cytosolic LPS Sensing Pathway: Gene Identification via Genome-wide siRNA Screen;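 note: robust z of the log signal after scaling to non-targeting control siRNA wells of the plate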
Settings: RAW264.7 macrophages, IL-1a HTRF, actives lie on both sides, screened at 100 nM (by protocol), cells primed 5 h with Pam3CSK4 first
How it was run: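 Cells (RAW264.7, 1×10^4 per well) were transfected with siRNA at 100 nM and cultured 48h at 37 degrees C. Pam3CSK4 was added for 5 hours; LipidA transfection followed for 24 hour. IL-1a was then measured by HTRF.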

Sequence | z-score
GGCUCAGAUCAAGCCAAAGTT against Cldn10 | inactive: -1.13
GCUUUUAUGCCACAAAUGATT against Pon1 | inactive: 0.155
GGAAAAAGCCAACAAUUUGTT against Spats1 | inactive: 1.62
GGGCAUCAAACCUACUGUCTT against Prrc2a | inactive: -1.8
GGUGCCUUGGGAAAAAGGATT against Ttc27 | inactive: 0.719
GGCAGUAGAUGAAAAUAAATT against Nphp1 | inactive: 0.929
CGCAGGUAAUUUGUUUGUGTT against Mtnr1b | inactive: 1.16
GGAGGAAGAUGACCUCAUCTT against Crlf2 | inactive: -0.212
GCACCGGAUUGAUUUUGUCTT against Pcyt1a | inactive: 0.0188
GCUAACCCUCGUUUAGAAGTT against Apol9b | inactive: 0.529
GGAGAUAAUCCUGAAUGGCTT against Hsd3b6 | inactive: -1.18
GGUGAAGUGUGUCAGUCUGTT against Orc6 | inactive: -0.551
GGUCUUUCAAGAGUUGAAATT against Fam98a | inactive: 1.49
GCGGUCUUUCUUUCUUCGATT against Sim2 | inactive: -1.42
GGAGAUUGGAAGAAGAAAATT against Sash1 | inactive: 0.0734
CCUCCAGAUAAGAAUGUGCTT against Fnip1 | inactive: -1.34
GCCUCUGUAUGUCAUAUUGTT against Zfp345 | inactive: 1.12
GGAGAACUAUUUCUUCAUCTT against Paf1 | inactive: 1.03
GCCAUUUUGCGUGUGGCACTT against Sgsm3 | inactive: 0.507
GGUAGUAGGGAACCAUAAATT against Zfp563 | inactive: -0.0657
GGACCAUGUGAUAAUAUCGTT against Als2 | inactive: -0.599
GCUUAUACACAGUACAGAATT against M1ap | inactive: 0.876

Sequence | z-score
CCAGUUUUCGACACAAUUCTT against Cma1 | inactive: 0.645
GGGAGACCCAAUGUCAUCATT against Dtx3 | inactive: -1.25
GGAUUUUAAAAUUCCCAGUTT against Usp33 | inactive: -0.593
GGUUGUCAAGGCUGCUCAUTT against Gpihbp1 | inactive: 0.0129
GGCAAGAGUGUUUUCAUACTT against Insl6 | inactive: 0.26
GCCCUGUUUUGAUCCAUGCTT against Slitrk3 | inactive: 0.635
GGAGAUGGAUCACUUAAAUTT against Cdh6 | inactive: 0.942
CCAGGAUCAAAGAACUUAUTT against Olfr1424 | active: -3.39
GGACAGUCAAAAAUUGUUCTT against Cyp7b1 | inactive: 0.416
GCAACAUUGUAGAUUGAUATT against Fam32a | inactive: -0.879
GGAACUGAUAUCAUGUACATT against Slc25a5 | active: 2.15
GCACUGUCGCAUCAUCAGATT against D230025D16Rik | inactive: 1.83
GGGAUGAAGUCCUGGAUAATT against Atp6v1g1 | inactive: -0.953
GGAUCCUGAACAUAUGAAUTT against Chst14 | inactive: -0.179
GCAGAUCAACAAAUAGGAUTT against Sft2d1 | inactive: 0.897
CCUAAUCUUCGUGCUUUACTT against Minpp1 | inactive: 1.4
GCUUAUCGUAAAGUAGCACTT against Dnajb7 | inactive: 0.0708
GGGAAACUCGAGAUGUGCATT against Ankmy2 | inactive: 0.944
GGACUCCCUGAAGUAGUGATT against Vmn1r226 | inactive: -0.24
CCAGAUUUCCUGCAUGGCUTT against Tmem223 | inactive: -0.695
GGUCACGAACAUUUUUGCUTT against Tmem167b | inactive: -1.94
GCUAUUUUCAUACAUUCCCTT against Tspoap1 | inactive: 0.144

Sequence | z-score
GGCGAAAAAAGCUAAGCAGTT against Trmt10c | inactive: -1.26
GGUUGCUCAGAUUCAGAAUTT against Isy1 | inactive: -1.53
GCAACUGGCUGAACUCUCATT against Gsdmc2 | active: 3.91
GGAAUCAUUAAAACUCUCCTT against Ccr3 | inactive: 1.22
CCGUUGGAGGUAAUUAGGATT against Dot1l | inactive: 0.463
CCAGAAUUUGUGAAAUCCGTT against Dner | inactive: -1.96
GGAGUGUUUAAAAGAGAAGTT against Mns1 | inactive: -0.588
GGACAUGUGGAAAUGGAUATT against Arhgap4 | inactive: 1.97
GCCCAACCUAGAUGAACCUTT against Tmem252 | inactive: 0.377
GCCAAUAGCUCCAGCUUGATT against Olfr668 | inactive: 0.534
GGACACCUGAAGUUAGUUUTT against Ndufaf1 | inactive: 0.622
GGGCAGGAUUGUCUGUUUATT against Pdrg1 | inactive: -1.33
GGUGUUGGAGCAGCUCACATT against Rpl11 | inactive: 0.823
GGGAGAAAUGCCUUUAGUCTT against Erfe | active: 3.79
CGGGUAACUACUAGGAAGGTT against Tex37 | inactive: -0.64
CCUUGUAGCUCUUUAUAAATT against Strn | active: 2.24
CCUGAGGAACUCCAACCAATT against Ltbp4 | inactive: -0.651
GGCAGCAAGACAACUUUUGTT against Foxp2 | inactive: -0.0973
CGCUUCAUGACUUCUGAAUTT against Ppp1r32 | inactive: 0.0722
GGAUUUGGGACUAAUUACGTT against Hsd17b7 | inactive: 1.02
GGAAUACCAGGAAAAUAGUTT against Chm | inactive: 0.495
GGUGGAAAGUAUCGUUGACTT against Cdyl | inactive: 0.188

Sequence | z-score
GGUGGUUUAAAAAACUGCUTT against Faah | inactive: 0.681
GGUUACAAACAUUUGUGAATT against Prph2 | inactive: 0.0977
GGGUUUCUUGUUUCUUAGATT against Aldh6a1 | inactive: -0.00669
GGAUUCUAUGACAAAGACATT against Ddx3x | inactive: 1.84
GGCUAAAAUCCAUGACAUUTT against Hspa1l | inactive: -0.211
GGGACAACAUUUUCUUGCCTT against Ms4a6b | inactive: -0.0956
GGAGAGGAACAGGAACAGATT against Ankrd9 | inactive: 0.557
GGGACAACAUCCCGUCAUATT against Zfp809 | inactive: 0.281
GCUGAUUCAAAACCAGGCATT against Nme2 | inactive: -1.57
GGUUUCCUAGAGAGUAAAATT against Tctn3 | inactive: -0.215
CCAUGAGCAUAGUUAUCAGTT against Ankib1 | inactive: -0.000982
GGAUUUCGUGUGGAUGAAATT against Haus4 | inactive: -0.957
GGCUUUGAAACAUAAGAACTT against Zfp472 | inactive: -0.553
GCGAUUACUACUUGAAACUTT against Fa2h | inactive: -0.384
CGGCAGCUUGAAAUUACUGTT against Stx3 | inactive: 1.66
CCCAUAGACAUUUAUGUAATT against D17H6S56E-5 | inactive: -0.235
GGAAGCCAAAGAGAAACAATT against Ighmbp2 | inactive: -0.0223
GGAUGUGGUUUUACAUCUGTT against Lrp11 | inactive: -0.258
GGAGGUACCAUGCUAUGCATT against Igf2r | inactive: -0.917
GGGCUUGGCAUACUCCUAATT against Ebf4 | inactive: 0.134
CGUGCAUCCCUAUAUCCUATT against Panx2 | inactive: 0.343
GGUAAAUGAGAAAAACCUCTT against Gda | inactive: -0.482

Sequence | z-score
GCUGUGACCCUUGUCCUUUTT against Ptms | inactive: -0.298
CGGCACUAGGAAGCUUUUATT against Inpp5a | inactive: -0.185
GGAUAACCAACAAGGUUUUTT against Mgst1 | inactive: 0.701
GCAUCUACAAAUGUUUCAGTT against Zc3h12d | inactive: 0.854
GGUCAUAGAGACAGACUACTT against Lcn12 | inactive: -0.378
CCCACAAUGCUGCUAUUAUTT against Gmfb | inactive: 0.505
GCUCUUAGAGAUUUGUUUGTT against Usp14 | inactive: 0.389
GGGUGACAGUGAUAUCCAGTT against Mc1r | inactive: 0.279
GGAUGCCUUCUAUACACUATT against Hras | inactive: -1.33
GGAUCAUUGUCAAAGUUCUTT against Zfp959 | inactive: -0.772
GCCAGUGGUGUUUGCAUAGTT against Scrn1 | inactive: 1.55
CCGGAGAUAUAUCAAUAUUTT against Pcdhga3 | inactive: 0.658
GCCUUCAGGACGAUUUAUUTT against Pla2g7 | inactive: 1.19
GGGAAACCACAGUAGUCUGTT against Gk | inactive: -0.416
GCUUAUAAGAGAAAUGACUTT against 4921511C20Rik | inactive: -0.429
CCACAAAUGAGAACUUCCCTT against Szrd1 | inactive: -0.61
GGCAAGAAGUAGGAAGACUTT against Nucb2 | inactive: -0.907
CGAGCUCCUUCAUAUUAAATT against Rapgef4 | inactive: 0.395
GGUUUGUGUCUAAGGAAUUTT against Klhdc7a | inactive: -0.203

22 successive entries from above, for reference:
Sequence | z-score
GCCAAUAGCUCCAGCUUGATT against Olfr668 | inactive: 0.534
GGACACCUGAAGUUAGUUUTT against Ndufaf1 | inactive: 0.622
GGGCAGGAUUGUCUGUUUATT against Pdrg1 | inactive: -1.33
GGUGUUGGAGCAGCUCACATT against Rpl11 | inactive: 0.823
GGGAGAAAUGCCUUUAGUCTT against Erfe | active: 3.79
CGGGUAACUACUAGGAAGGTT against Tex37 | inactive: -0.64
CCUUGUAGCUCUUUAUAAATT against Strn | active: 2.24
CCUGAGGAACUCCAACCAATT against Ltbp4 | inactive: -0.651
GGCAGCAAGACAACUUUUGTT against Foxp2 | inactive: -0.0973
CGCUUCAUGACUUCUGAAUTT against Ppp1r32 | inactive: 0.0722
GGAUUUGGGACUAAUUACGTT against Hsd17b7 | inactive: 1.02
GGAAUACCAGGAAAAUAGUTT against Chm | inactive: 0.495
GGUGGAAAGUAUCGUUGACTT against Cdyl | inactive: 0.188
GGUGGUUUAAAAAACUGCUTT against Faah | inactive: 0.681
GGUUACAAACAUUUGUGAATT against Prph2 | inactive: 0.0977
GGGUUUCUUGUUUCUUAGATT against Aldh6a1 | inactive: -0.00669
GGAUUCUAUGACAAAGACATT against Ddx3x | inactive: 1.84
GGCUAAAAUCCAUGACAUUTT against Hspa1l | inactive: -0.211
GGGACAACAUUUUCUUGCCTT against Ms4a6b | inactive: -0.0956
GGAGAGGAACAGGAACAGATT against Ankrd9 | inactive: 0.557
GGGACAACAUCCCGUCAUATT against Zfp809 | inactive: 0.281
GCUGAUUCAAAACCAGGCATT against Nme2 | inactive: -1.57
